Source: PMC8533965

Assays:
Assay in all cases: split reporter; BiFC with split Venus in living zebrafish embryos: Buc constructs with VC and zfVasa constructs with VN at their C-termini, mRNAs (200 ng/μL) co-injected at the one-cell stage, fluorescence imaged at 3 hpf by confocal microscopy; read-out percent of fluorescent embryos, three independent …
[1] = molecular target: zfVasa I609Q (full length) fused to the Venus N-terminal half (zebrafish)
[2] = molecular target: zfVasa RecA-NTD (amino acids 278–495) fused to the Venus N-terminal half (zebrafish)
[3] = molecular target: zfVasa-IDR (amino acids 1–277) fused to the Venus N-terminal half (zebrafish)

binding [1]: no binding
binding [2]: no binding
binding [3]: no binding
B1: Bucky ball, full length (amino acids 1–639), fused to the Venus C-terminal half (Buc-VC) (protein, UniProt H0WFA5 1-639)
chain: MEGINNNSQPMGVGQPHHPVNHTRPFFYVQPPSQPYFMYQWPMNPYGHYGFPGPALHFGRPYMAPYQFMQYPGYVIPHAPMQPIDYRRINPHYPSVASYDLRVRHHFQNAGMHRETACSEVQTDPSDSVNKLIDKIESLKACELGSDKGPNNVVSSTPDVVQGEKLTRLNEDSNLEVATKECKEDPVTRPTTYSDSAYDAESSQGRLDECVFSDVLPLDSSSVHEEEEEEEKDVNEEDEPQTVADEICSQNEMSASTTSNVFCSGVQSIADPTECHDLEKLGDEQKQDIPSADAAAVIEPLISLSEDFDLPYQILRLPCNKTTTGLSLEREIDPLVYFDSPSTLLPPQNYLSSIGSAYSYSYYPQVTQERQSVLSPSIDELSSRDEMFSTDVEDLEVVPGHVYVGGGRLAEASDMPVRSRKELPSVDKTCSVCQKTCACCGSTLQDEVGMCKMAEHSHPERDEMSDQDCDYDLEAEVRSNCESPRVSKRKCCSRHALPSCGHHCAKHRHRKLLCEGQESCDLREQARVHPKGECCEEYGALAKADKRIQKGALCRPCIEQQWREGVVSDQENWASCGAKPRSWRQVTGPQDQGRTPLRRSTCKSIHQQRPRSEYNDYDETEFTYCQRGRGSMKKRGSRY

No constants are given. Whether binding was seen depends on the method and setting. In cells and extracts the contact can be indirect. Tags and fused reporters may be left off the sequences shown.
